# Results are given in words; binding and its absence hold for the method and conditions named. Binding seen in cells or lysates may run through a third protein. A yes stands for co-enrichment or nearness to the bait. Other partners may have been found.
# The chains behind the UniProt entries cited, without tags or fusion partners. Where a name states a change or a piece, a line headed by the entry shows the natural chain unless it says otherwise. A line that says so, or that is headed by a name, gives the form on record, which may keep a tag or linker.
# UniProt Q16539: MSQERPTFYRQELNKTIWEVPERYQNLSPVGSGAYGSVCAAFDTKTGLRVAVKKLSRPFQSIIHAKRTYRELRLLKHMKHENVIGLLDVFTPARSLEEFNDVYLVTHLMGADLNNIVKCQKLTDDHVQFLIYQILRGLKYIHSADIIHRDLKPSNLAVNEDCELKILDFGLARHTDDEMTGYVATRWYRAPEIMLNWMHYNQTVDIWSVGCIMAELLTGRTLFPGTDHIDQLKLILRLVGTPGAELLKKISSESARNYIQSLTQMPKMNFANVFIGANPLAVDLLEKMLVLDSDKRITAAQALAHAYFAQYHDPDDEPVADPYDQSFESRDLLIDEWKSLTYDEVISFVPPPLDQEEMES
# Flag-p38α R49/149K mutant (Q16539, form named): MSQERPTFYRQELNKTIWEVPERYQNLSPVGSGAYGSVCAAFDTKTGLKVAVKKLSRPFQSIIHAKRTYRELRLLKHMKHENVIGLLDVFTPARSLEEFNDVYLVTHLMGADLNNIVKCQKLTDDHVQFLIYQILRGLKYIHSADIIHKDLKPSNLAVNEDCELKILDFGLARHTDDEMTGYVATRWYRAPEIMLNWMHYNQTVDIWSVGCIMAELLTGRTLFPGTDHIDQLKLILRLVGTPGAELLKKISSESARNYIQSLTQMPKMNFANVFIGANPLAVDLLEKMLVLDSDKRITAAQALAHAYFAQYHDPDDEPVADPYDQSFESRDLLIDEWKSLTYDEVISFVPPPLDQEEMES
# UniProt Q16644: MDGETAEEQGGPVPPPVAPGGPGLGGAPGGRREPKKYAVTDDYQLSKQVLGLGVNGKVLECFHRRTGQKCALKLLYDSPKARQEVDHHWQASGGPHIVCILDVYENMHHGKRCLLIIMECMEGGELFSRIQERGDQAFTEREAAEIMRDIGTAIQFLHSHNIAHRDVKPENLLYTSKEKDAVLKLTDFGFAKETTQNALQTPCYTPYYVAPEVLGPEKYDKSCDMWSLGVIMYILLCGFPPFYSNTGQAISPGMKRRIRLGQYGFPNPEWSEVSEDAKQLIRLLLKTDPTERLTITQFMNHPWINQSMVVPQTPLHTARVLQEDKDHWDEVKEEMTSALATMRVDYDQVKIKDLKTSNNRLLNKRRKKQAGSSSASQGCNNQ
# How the values were obtained:
# Flag-p38α wild type = Flag-p38α wild type (UniProt Q16539 1-360); test: affinity purification with mass spectrometry; Flag-p38α wild type or R49/149K co-expressed with HA-PRMT1 in p38α KD K562 cells, AraC stimulated, anti-Flag immunoprecipitates fractionated by SDS-PAGE and analysed by LC-MS/MS; hits filtered by Ingenuity Pathway Analysis
# [1] = target: Flag-p38α R49/149K mutant (UniProt Q16539 1-360, R49/149K | R49/149K); test: as above
substance,measurement,setting,value
MAPK-activated protein kinase 3 (MAPKAPK3) (from UniProt Q16644 1-382) (enzyme),binding,Flag-p38α wild type,binds
same,binding,[1],binds

# Reference: paper PMC7278938, “The MKK-Dependent Phosphorylation of p38α Is Augmented by Arginine Methylation on Arg49/Arg149 during Erythroid Differentiation” (International Journal of Molecular Sciences, 2020)
